Experimental findings from PubChem BioAssay AID248 (DTP/NCI, 2004) are described below.

Molecules are shown by their SMILES. The list shows only some results of the screen, not a fair sample: it gathers tests that were run many times, whatever their T/C, doses with no T/C, and many T/C values between a quarter and a half above the control. Further doses and runs are listed elsewhere. T/C gives the treated animals as a percentage of the vehicle group. Some entries give survivors of the animals treated and no T/C: the source holds a T/C of zero for them, seemingly a mark for toxic or unscored doses. Some survivor counts are full or nearly so, which does not show that the dose was tolerated: the source hardly ever lists a survival T/C far under the control, and the zero likely stands for such cases as well. Counts of survivors are from the toxicity check (mostly the fifth day) where no day follows; animals may have died later. Schedule codes are those of the source, read here as Q, the interval in days (D) or hours (H), X, the number of doses. Some schedules carry Z or #; the key to these is not given. For survival time, this PubChem deposit counts one and a half times the control or more as active, and values a quarter to a half above the control carry no call in these data; other NCI protocols may use other cut-offs. Counts like (3×) count equal records among those shown. Some doses were run more than once; the results are listed from low to high. Some T/C values carry the count of animals alive at the toxicity check (mostly the fifth day); where none is given, no animal had died by that day.

The subject of the test is L1210 leukemia ip in BDF1 mice, survival T/C. Kind of test: NCI In Vivo Anticancer Drug Screen. Data for tumor model L1210 Leukemia (intraperitoneal) in B6D2F1 (BDF1) mice. The settings on record: T/C endpoint: mean survival time, higher T/C = longer survival.
The mark [1] stands for this setting: dose: 400.0 mg/kg/injection, schedule: Q01DX001 (ip), vehicle: saline.
The mark [2] stands for this setting: dose: 400.0 mg/kg/injection, schedule: Q04DX002 (ip), vehicle: saline.
[3] abbreviates: dose: 400.0 mg/kg/injection, schedule: Q01DX001 (ip), vehicle: other.

On to `O=[N+]([O-])c1ccc(O)c(/C=N/Nc2c3ccccc3nc3ccccc23)c1`, for which the survivor count (dose: 100.0 mg/kg/injection, schedule: Q01DX001 (ip), vehicle: saline) was 4 of 4; the survivor count (dose: 200.0 mg/kg/injection, schedule: Q01DX001 (ip), vehicle: saline) was 4 of 4; the survivor count under setting [1] was 3 of 4.
Regarding `O=c1[nH]cnc2c1ncn2C1OC(CO)C(O)C1O` (stereo not given), the T/C is, setting by setting: (dose: 125.0 mg/kg/injection, schedule: Q06HX008 (ip), vehicle: steroid suspending solution, evaluated on day 5) 102 % of control; (dose: 125.0 mg/kg/injection, schedule: Q06HX008 (ip), vehicle: steroid suspending solution, evaluated on day 6) 95 % of control; (dose: 125.0 mg/kg/injection, schedule: Q06HX008 (ip), vehicle: steroid suspending solution, evaluated on day 19) 102 % of control; (dose: 125.0 mg/kg/injection, schedule: Q06HX008 (ip), vehicle: steroid suspending solution, evaluated on day 60) 95 % of control (2×); (dose: 250.0 mg/kg/injection, schedule: Q06HX008 (ip), vehicle: steroid suspending solution, evaluated on day 5) 102 % of control; (dose: 250.0 mg/kg/injection, schedule: Q06HX008 (ip), vehicle: steroid suspending solution, evaluated on day 6) 103 % of control. For the same compound, the T/C reads like this: (dose: 250.0 mg/kg/injection, schedule: Q06HX008 (ip), vehicle: steroid suspending solution, evaluated on day 19) 102 % of control; (dose: 250.0 mg/kg/injection, schedule: Q06HX008 (ip), vehicle: steroid suspending solution, evaluated on day 60) 101 and 103 % of control; (dose: 500.0 mg/kg/injection, schedule: Q06HX008 (ip), vehicle: steroid suspending solution, evaluated on day 5) 102 % of control; (dose: 500.0 mg/kg/injection, schedule: Q06HX008 (ip), vehicle: steroid suspending solution, evaluated on day 6) 101 % of control; (dose: 500.0 mg/kg/injection, schedule: Q06HX008 (ip), vehicle: steroid suspending solution, evaluated on day 19) 102 % of control; (dose: 500.0 mg/kg/injection, schedule: Q06HX008 (ip), vehicle: steroid suspending solution, evaluated on day 60) 96 and 101 % of control. Also, the T/C (dose: 1000.0 mg/kg/injection, schedule: Q06HX008 (ip), vehicle: steroid suspending solution, evaluated on day 5) was 97 % of control; the T/C (dose: 1000.0 mg/kg/injection, schedule: Q06HX008 (ip), vehicle: steroid suspending solution, evaluated on day 6) is 106 % of control; the T/C (dose: 1000.0 mg/kg/injection, schedule: Q06HX008 (ip), vehicle: steroid suspending solution, evaluated on day 19) is 97 % of control [7 of 8 alive]; the T/C (dose: 1000.0 mg/kg/injection, schedule: Q06HX008 (ip), vehicle: steroid suspending solution, evaluated on day 60) was 93 and 106 % of control.
Regarding `NC(CCl)=NCCCN1CCOCC1`, the survivor count under setting [2] is listed as 0 of 3.
With `O=C(O)C1C2CC3C(C2)C31.[Ag]` (stereo not given), the survivor count (dose: 10.0 mg/kg/injection, schedule: Q01DX009 (ip), vehicle: Klucel (hydroxypropylcellulose) (HPC)) is reported as 6 of 6; the survivor count (dose: 40.0 mg/kg/injection, schedule: Q01DX009 (ip), vehicle: Klucel (hydroxypropylcellulose) (HPC)) is on record as 6 of 6; the survivor count (dose: 80.0 mg/kg/injection, schedule: Q04DX003 (ip), vehicle: Klucel (hydroxypropylcellulose) (HPC)) is listed as 2 of 6; the survivor count (dose: 100.0 mg/kg/injection, schedule: Q04DX003 (ip), vehicle: Klucel (hydroxypropylcellulose) (HPC)) is listed as 3 of 6; the survivor count (dose: 200.0 mg/kg/injection, schedule: Q04DX003 (ip), vehicle: Klucel (hydroxypropylcellulose) (HPC)) is 0 of 6; the survivor count (dose: 400.0 mg/kg/injection, schedule: Q04DX003 (ip), vehicle: Klucel (hydroxypropylcellulose) (HPC)) is listed as 0 of 6.
Regarding `O=C(O)/C=C/c1nc2ccccc2c(=O)[nH]1`, for the setting “dose: 200.0 mg/kg/injection, schedule: Q01DX009 (ip), vehicle: Klucel (hydroxypropylcellulose) (HPC)”, the survivor count was 3 of 3.
Take `CCCCN(CCCC)/N=N/c1nc[nH]c1C(=O)OC`: under setting [3], the survivor count is given as 2 of 4.
`O=C1NC(=O)C(F)(F)C(O)N1` (stereo not given): the T/C was 127 % of control (dose: 65.0 mg/kg/injection, schedule: Q01DX009 (ip), vehicle: saline); 140 % of control (dose: 100.0 mg/kg/injection, schedule: Q01DX009 (ip), vehicle: saline); 145 % of control (dose: 150.0 mg/kg/injection, schedule: Q01DX009 (ip), vehicle: saline).
For `Cc1cc(NC(=O)N(CCCl)N=O)c(C)cc1NC(=O)c1ccccc1`, the T/C by setting is: (dose: 6.3 mg/kg/injection, schedule: Q01DX009 (ip), vehicle: carboxymethylcellulose (CMC)) 134 % of control; (dose: 7.5 mg/kg/injection, schedule: Q01DX009 (ip), vehicle: carboxymethylcellulose (CMC)) 129 % of control; (dose: 9.6 mg/kg/injection, schedule: Q01DX009 (ip), vehicle: other) 142 % of control; (dose: 14.0 mg/kg/injection, schedule: Q01DX001 (ip), vehicle: carboxymethylcellulose (CMC)) 128 % of control; (dose: 15.0 mg/kg/injection, schedule: Q01DX009 (ip), vehicle: carboxymethylcellulose (CMC)) 142 % of control; (dose: 30.0 mg/kg/injection, schedule: Q01DX009 (ip), vehicle: carboxymethylcellulose (CMC)) 149 % of control [5 of 6 alive]. Also, the T/C by setting is: (dose: 50.0 mg/kg/injection, schedule: Q01DX001 (ip), vehicle: carboxymethylcellulose (CMC)) 147 % of control; (dose: 53.0 mg/kg/injection, schedule: Q01DX001 (ip), vehicle: carboxymethylcellulose (CMC)) 137 % of control; (dose: 80.0 mg/kg/injection, schedule: Q01DX001 (ip), vehicle: carboxymethylcellulose (CMC)) 142 % of control; (dose: 115.0 mg/kg/injection, schedule: Q01DX001 (ip), vehicle: carboxymethylcellulose (CMC)) 140 % of control; (dose: 115.0 mg/kg/injection, schedule: Q01DX009 (ip), vehicle: carboxymethylcellulose (CMC)) 142 % of control [5 of 6 alive]; (dose: 177.0 mg/kg/injection, schedule: Q01DX001 (ip), vehicle: carboxymethylcellulose (CMC)) 140 % of control. Besides, the T/C (dose: 177.0 mg/kg/injection, schedule: Q01DX001 (ip), vehicle: other) was 147 % of control; the T/C (dose: 177.0 mg/kg/injection, schedule: Q01DX009 (ip), vehicle: carboxymethylcellulose (CMC)) is 144 % of control; the T/C (dose: 266.0 mg/kg/injection, schedule: Q01DX001 (ip), vehicle: carboxymethylcellulose (CMC)) is 148 % of control. Further, the survivor count reads like this: (dose: 266.0 mg/kg/injection, schedule: Q01DX009 (ip), vehicle: carboxymethylcellulose (CMC)) 6 of 6; under setting [3], 2 of 6.
`CC1CC(O)C([N+](=O)[O-])C(O)C1` (stereo not given): the T/C (dose: 25.0 mg/kg/injection, schedule: Q01DX009 (ip), vehicle: saline) is 132 % of control. The survivor count (dose: 50.0 mg/kg/injection, schedule: Q01DX009 (ip), vehicle: saline) was 1 of 6.
`NC(=O)C1C2C=CC(O2)C1C(N)=O` (stereo not given): the survivor count under setting [2] is listed as 1 of 3.
Regarding `O=C1C=CC(=O)N1CCCCCCCCCCN1C(=O)C=CC1=O`, the survivor count reads like this: (dose: 2.2 mg/kg/injection, schedule: Q01DX Z (ip), vehicle: methylcellulose (MC)) 1 of 6; (dose: 3.3 mg/kg/injection, schedule: Q01DX Z (ip), vehicle: methylcellulose (MC)) 2 of 6; (dose: 5.0 mg/kg/injection, schedule: Q01DX Z (ip), vehicle: methylcellulose (MC)) 2 of 6.
For the compound `CC(C)CC(C=O)(CCN(C)C)c1cccc2ccccc12` (stereo not given), the survivor count runs as follows: (dose: 100.0 mg/kg/injection, schedule: Q04DX003 (ip), vehicle: saline with Tween-80) 1 of 6; (dose: 200.0 mg/kg/injection, schedule: Q04DX003 (ip), vehicle: saline with Tween-80) 0 of 6; (dose: 400.0 mg/kg/injection, schedule: Q04DX003 (ip), vehicle: saline with Tween-80) 0 of 6.
`c1ccc(OCC2(N3CCCCC3)CCCC2)cc1`: the survivor count (dose: 200.0 mg/kg/injection, schedule: Q04DX002 (ip), vehicle: saline with Tween-80) was 1 of 3 and the survivor count (dose: 400.0 mg/kg/injection, schedule: Q04DX002 (ip), vehicle: saline with Tween-80) is 2 of 3.
Take `NC(=O)c1c[n+]([O-])ccn1`: the survivor count under setting [1] was 3 of 6.
